According to paper PMC8660804:
For some assays here: A negative result means that nothing was seen under these conditions. For some assays here: Construct, isoform or probe ends are uncertain for at least one entry. For some assays here: At least one verdict rests on a figure or table, not on a statement of the authors.

Chains of the proteins cited; added tags and fusions are not shown. Residues count along the entry.
UniProt P02769, 25-607: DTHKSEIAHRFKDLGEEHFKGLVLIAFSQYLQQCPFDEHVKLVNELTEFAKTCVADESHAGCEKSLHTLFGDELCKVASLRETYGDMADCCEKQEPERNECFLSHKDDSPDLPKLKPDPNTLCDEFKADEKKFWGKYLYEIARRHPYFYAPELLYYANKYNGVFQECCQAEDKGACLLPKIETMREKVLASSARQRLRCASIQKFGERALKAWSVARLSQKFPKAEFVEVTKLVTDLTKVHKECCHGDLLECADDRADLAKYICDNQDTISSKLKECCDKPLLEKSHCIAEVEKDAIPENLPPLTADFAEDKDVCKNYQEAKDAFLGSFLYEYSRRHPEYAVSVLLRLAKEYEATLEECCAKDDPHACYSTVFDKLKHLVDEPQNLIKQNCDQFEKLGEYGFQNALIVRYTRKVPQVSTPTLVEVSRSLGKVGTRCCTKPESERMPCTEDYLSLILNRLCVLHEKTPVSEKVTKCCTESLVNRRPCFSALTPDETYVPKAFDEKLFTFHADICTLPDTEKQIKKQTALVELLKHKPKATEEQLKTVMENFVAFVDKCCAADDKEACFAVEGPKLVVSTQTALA

How the values were obtained:
[1] = system: Anabaena sensory rhodopsin transducer (ASRT) (Anabaena); test: single-molecule FRET DNA cyclization (looping); conditions: NaCl series, looping maximal at 50 mM Na+, Mg2+ essential for looping; NaCl varied (50 mM optimal; 1 M also used), 10 mM MgCl2 (stated for BSA control), 60 min incubation; recombinant protein
[2] = molecular target: Bovine serum albumin (BSA) (bovine) (UniProt P02769); test: single-molecule FRET DNA cyclization (looping); conditions: 100 uM BSA, 50 mM NaCl, 10 mM MgCl2, 60 min, read-out is bending; NaCl varied (50 mM optimal; 1 M also used), 10 mM MgCl2 (stated for BSA control), 60 min incubation; commercial protein

Q: Does “CAGAATCCGTGAATATTTGTTTTCTAAATAGTAAGAATAATTGCAATCGACCTTATAAAAAGCTGCAATGACCTTTAGGAGGAAAGAAAGATGCTCGATGCTTTTTCCAAA / ACGGATTCTGTTTTGGAAAAAGCATCGAGCATCTTTCTTTCCTCCTAAAGGTCATTGCAGCTTTTTATAAGGTCGATTGCAATTATTCTTACTATTTAGAAAACAAATATTC [DNA1 (pec promoter)]” bind [1]?
A: Result: binds

Q: Does “CAGAATCCGTGAATATTTGTTTTCTAAATAGTAAGAATAATTGCAATCGACCTTATAAAAAGCTGCAATGACCTTTAGGAGGAAAGAAAGATGCTCGATGCTTTTTCCAAA / ACGGATTCTGTTTTGGAAAAAGCATCGAGCATCTTTCTTTCCTCCTAAAGGTCATTGCAGCTTTTTATAAGGTCGATTGCAATTATTCTTACTATTTAGAAAACAAATATTC [DNA1 (pec promoter)]” bind [2]?
A: Result: no binding
